Measured values from patent US10858389 (dated 2020).
Square brackets hold non-standard residues; d marks the D form. * marks the point of attachment. dOrn = NCCC[C@@H](N)C(=O)O; Orn = NCCC[C@H](N)C(=O)O; Boc = CC(C)(C)OC(=O)*; Acm = CC(=O)NC*

Test: general procedure: solution-phase peptide synthesis; EDC.HCl/HONb/DIPEA; HOBt
Details: for crude HPLC purity: UV 220 nm (HPLC method 2)
[1] = late stage modification step, HPLC

## Etelcalcetide
Late stage modification step
  step yield: 53%
  crude HPLC purity: 60% RS
Late stage modification step, UPLC UV 220 nm
  final HPLC purity: >95% RS
Purification step
  step yield: >90%

## H-(D)Arg-(D)Arg-(D)Ala-(D)Arg-NH2.4HCl
Coupling step, 4HCl
  step yield: 74.5%
Coupling step, HPLC, 4HCl
  purity (crude or final not stated): 94.1%

## Ac-[dC](Acm)[dA][dOrn](Boc)[dOrn](Boc)[dOrn](Boc)[dA][Orn](Boc)-NH2
Late stage modification step
  step yield: 73%
[1]
  final HPLC purity: 96.3%

## Ac-D-Cys(Trt)-D-Ala-D-Arg-D-Arg-D-Arg-D-Ala-D-Arg-NH2. 4HCl
Coupling step, HPLC
  final HPLC purity: greater than 99 Area %
Coupling step
  crude HPLC purity: 86.7% RS
Purification step
  step yield: 64%

## Ac-[dC](Acm)[dA][dOrn](Boc)[dOrn](Boc)[dOrn](Boc)[dA][Orn](Boc)-OMe
Coupling step
  step yield: 62%
Coupling step, HPLC
  final HPLC purity: 99%

## Z-D-Orn(Boc)-D-Orn(Boc)-D-Ala-Orn(Boc)-OMe
Coupling step
  step yield: 81%
Coupling step, HPLC
  final HPLC purity: 99%

## Ac-D-Cyst(Acm)-D-Ala-D-Arg(Boc)2-D-Arg(Boc)2-D-Arg(Boc)2-D-Ala-D-Arg(Boc)2-NH2
Late stage modification step
  step yield: 31%
[1]
  final HPLC purity: 94.9%
